Results from paper doi:10.1101/368704.
Where two headings read alike, the source gives them in different places. These are yes or no findings as the source states them, for the method shown. Some results given as binding are weak or reduced against the parent protein; the word gives no strength. Sequences can lack the tags named with a protein.

By UniProt entry, the sequences of proteins in these tests, tags left out.
UniProt P93830: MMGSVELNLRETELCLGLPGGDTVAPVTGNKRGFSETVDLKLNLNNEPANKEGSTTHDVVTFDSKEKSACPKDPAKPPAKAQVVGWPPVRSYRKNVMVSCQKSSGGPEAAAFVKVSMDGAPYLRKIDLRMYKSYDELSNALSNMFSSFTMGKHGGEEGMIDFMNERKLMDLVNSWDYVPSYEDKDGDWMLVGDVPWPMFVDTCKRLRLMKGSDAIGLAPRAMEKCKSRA

How the values were obtained:
[1] = target: T1, TOPLESS amino-terminal region (AA 1-188; TPL-N), bait fused to the GAL4 DBD (A. thaliana) (UniProt Q94AI7); experiment: two-hybrid
T1 sequence: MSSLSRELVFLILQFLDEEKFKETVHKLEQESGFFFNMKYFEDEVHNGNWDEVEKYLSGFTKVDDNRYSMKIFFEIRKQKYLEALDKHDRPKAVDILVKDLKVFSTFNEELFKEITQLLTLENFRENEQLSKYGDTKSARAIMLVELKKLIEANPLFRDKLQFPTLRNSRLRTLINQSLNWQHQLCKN

[2] = target: T1, TOPLESS amino-terminal region (AA 1-188; TPL-N), bait fused to the GAL4 DBD (A. thaliana); experiment: two-hybrid; remark: listed apart in the source

With “auxin/indole-3-acetic acid 17 (IAA17), control prey fused to the GAL4 AD (from UniProt P93830 1-229)” as the molecule, how does the binding [1] read?
The binding was “binds”.

B1: bHLH TF AT3G19860, prey of the binary Y2H fused to the GAL4 AD (protein, UniProt Q9LT23 1-337)
chain: MGIRENGIMLVSRERERARRLENRESIFAEPPCLLLAHRISPSPSILPAEEEVMDVSARKSQKAGREKLRREKLNEHFVELGNVLDPERPKNDKATILTDTVQLLKELTSEVNKLKSEYTALTDESRELTQEKNDLREEKTSLKSDIENLNLQYQQRLRSMSPWGAAMDHTVMMAPPPSFPYPMPIAMPPGSIPMHPSMPSYTYFGNQNPSMIPAPCPTYMPYMPPNTVVEQQSVHIPQNPGNRSREPRAKVSRESRSEKAEDSNEVATQLELKTPGSTSDKDTLQRPEKTKRCKRNNNNNSIEESSHSSKCSSSPSVRDHSSSSSVAGGQKPDDAK
B1 was tested. Which binding [2] did it give?
Its binding is “binds”.

B2: ATCKA2 (AT3G50000), prey of the binary Y2H fused to the GAL4 AD (protein, UniProt Q08466 1-403)
chain: MHLIFFFSYFLRRYLLLLCAILILRAPLAHSLIPPLTCVNTGTVESDVTGIRFDRCLDTDSLAKISLSTVMSKARVYTDVNVIRPKDYWDYESLNVQWGEQDDYEVVRKVGRGKYSEVFEGINMNNNEKCIIKILKPVKKKKIRREIKILQNLCGGPNIVKLLDVVRDQHSKTPSLIFEYVNSTDFKVLYPTLTDYDIRYYIYELLKALDFCHSQGIMHRDVKPHNVMIDHELRKLRLIDWGLAEFYHPGKEYNVRVASRYFKGPELLVDLQDYDYSLDMWSLGCMFAGMIFRKEPFFYGHDNQDQLVKIAKVLGTDELNAYLNKYQLELDTQLEALVGRHSRKPWSKFINADNRHLVSPEAIDYLDKLLRYDHQDRLTAKEAMAHPYFAQVRAAESSRMRTQ
For B2, which binding [2] is on record?
Its binding is “no binding”.
